What was measured:
[1] = in vitro; details: PAMPA
[2] = PAMPA

With `COc1cc2c(cc1OC)C(=O)C(CC1CCN(Cc3ccccc3)CC1)C2` (centres unmarked) [Donepezil] the Papp [1] was 104 ± 9.8 nm/s and the “Prediction of CNS penetrability” value [2] was “CNS + (key: CNS +: Pe (10^–6 cm/s) > 4.0, high BBB permeability; CNS ±: 2.0 < Pe (10^–6 cm/s) < 4.0, uncertain BBB permeability; CNS −: Pe (10^–6 cm/s) < 2.0, low BBB permeability)”.

— PMC8510601, “Discovery of benzamide-hydroxypyridinone hybrids as potent multi-targeting agents for the treatment of Alzheimer's disease” (Journal of Enzyme Inhibition and Medicinal Chemistry, 2021)
